# Measured values published in the supplement of paper PMC10849652.
# Protein sequences, listed by entry. Tags and fused reporters are not part of them. Lines headed by an entry give the natural chain unless they say otherwise; changes in a name come on top.
# UniProt Q9UQE7: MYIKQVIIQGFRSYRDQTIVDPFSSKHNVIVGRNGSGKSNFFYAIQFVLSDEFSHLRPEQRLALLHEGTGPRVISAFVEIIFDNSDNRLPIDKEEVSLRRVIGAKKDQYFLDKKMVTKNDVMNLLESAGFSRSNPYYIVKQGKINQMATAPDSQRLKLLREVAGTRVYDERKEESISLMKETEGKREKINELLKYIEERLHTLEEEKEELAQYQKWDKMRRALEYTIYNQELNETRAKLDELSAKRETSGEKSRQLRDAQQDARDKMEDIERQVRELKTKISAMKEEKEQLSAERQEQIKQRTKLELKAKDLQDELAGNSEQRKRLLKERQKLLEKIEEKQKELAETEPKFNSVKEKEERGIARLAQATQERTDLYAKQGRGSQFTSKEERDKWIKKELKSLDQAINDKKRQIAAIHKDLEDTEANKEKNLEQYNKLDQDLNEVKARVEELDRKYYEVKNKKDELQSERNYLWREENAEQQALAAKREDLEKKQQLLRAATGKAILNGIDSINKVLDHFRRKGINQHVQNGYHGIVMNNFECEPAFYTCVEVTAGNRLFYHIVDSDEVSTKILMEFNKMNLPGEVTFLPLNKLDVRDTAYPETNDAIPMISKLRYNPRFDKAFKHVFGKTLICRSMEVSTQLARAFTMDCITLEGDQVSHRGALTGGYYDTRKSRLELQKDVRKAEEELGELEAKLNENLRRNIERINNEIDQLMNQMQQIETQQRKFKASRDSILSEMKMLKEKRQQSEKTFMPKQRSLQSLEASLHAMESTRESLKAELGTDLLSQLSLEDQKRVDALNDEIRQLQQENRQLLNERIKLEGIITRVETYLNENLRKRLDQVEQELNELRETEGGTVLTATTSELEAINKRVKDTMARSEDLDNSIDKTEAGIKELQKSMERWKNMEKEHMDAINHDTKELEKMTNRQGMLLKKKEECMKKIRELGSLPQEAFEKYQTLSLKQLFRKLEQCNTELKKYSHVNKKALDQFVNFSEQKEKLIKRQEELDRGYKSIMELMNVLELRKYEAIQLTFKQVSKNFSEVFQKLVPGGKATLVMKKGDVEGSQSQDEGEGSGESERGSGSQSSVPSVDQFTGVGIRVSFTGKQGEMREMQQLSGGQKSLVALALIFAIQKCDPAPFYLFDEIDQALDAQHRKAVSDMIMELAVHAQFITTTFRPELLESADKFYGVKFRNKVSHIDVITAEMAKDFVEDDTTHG
# UniProt Q14683: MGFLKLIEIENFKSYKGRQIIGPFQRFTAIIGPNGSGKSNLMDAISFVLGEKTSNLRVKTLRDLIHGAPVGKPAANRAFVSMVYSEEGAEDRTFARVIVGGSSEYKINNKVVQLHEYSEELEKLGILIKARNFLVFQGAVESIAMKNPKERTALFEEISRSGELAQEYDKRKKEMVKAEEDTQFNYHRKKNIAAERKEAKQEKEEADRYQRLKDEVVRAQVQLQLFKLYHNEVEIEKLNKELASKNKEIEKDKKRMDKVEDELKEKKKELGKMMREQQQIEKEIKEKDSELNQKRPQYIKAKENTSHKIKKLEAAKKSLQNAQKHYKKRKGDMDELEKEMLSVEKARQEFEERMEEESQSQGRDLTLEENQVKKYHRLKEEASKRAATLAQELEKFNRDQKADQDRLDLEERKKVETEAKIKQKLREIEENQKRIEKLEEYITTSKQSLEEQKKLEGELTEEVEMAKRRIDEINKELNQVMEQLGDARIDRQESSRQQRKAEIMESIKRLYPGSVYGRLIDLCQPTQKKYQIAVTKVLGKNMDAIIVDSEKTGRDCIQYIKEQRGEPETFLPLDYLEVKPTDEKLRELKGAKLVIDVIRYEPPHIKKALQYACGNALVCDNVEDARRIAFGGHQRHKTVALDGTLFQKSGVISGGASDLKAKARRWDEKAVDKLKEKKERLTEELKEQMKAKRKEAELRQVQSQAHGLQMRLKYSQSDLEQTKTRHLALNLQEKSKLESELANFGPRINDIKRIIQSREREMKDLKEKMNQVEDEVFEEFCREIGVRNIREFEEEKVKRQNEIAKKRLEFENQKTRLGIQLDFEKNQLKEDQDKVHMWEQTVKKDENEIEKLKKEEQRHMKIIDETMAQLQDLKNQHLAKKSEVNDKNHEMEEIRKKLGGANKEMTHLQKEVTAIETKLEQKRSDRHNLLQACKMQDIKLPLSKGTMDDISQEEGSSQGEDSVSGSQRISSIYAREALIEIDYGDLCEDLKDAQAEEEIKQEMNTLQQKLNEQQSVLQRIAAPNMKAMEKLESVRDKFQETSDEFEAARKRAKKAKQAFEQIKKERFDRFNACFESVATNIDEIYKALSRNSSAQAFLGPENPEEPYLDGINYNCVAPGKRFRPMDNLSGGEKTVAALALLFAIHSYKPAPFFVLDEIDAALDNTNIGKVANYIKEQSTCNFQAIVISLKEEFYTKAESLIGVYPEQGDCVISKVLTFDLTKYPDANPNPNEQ
# UniProt Q9NRH2: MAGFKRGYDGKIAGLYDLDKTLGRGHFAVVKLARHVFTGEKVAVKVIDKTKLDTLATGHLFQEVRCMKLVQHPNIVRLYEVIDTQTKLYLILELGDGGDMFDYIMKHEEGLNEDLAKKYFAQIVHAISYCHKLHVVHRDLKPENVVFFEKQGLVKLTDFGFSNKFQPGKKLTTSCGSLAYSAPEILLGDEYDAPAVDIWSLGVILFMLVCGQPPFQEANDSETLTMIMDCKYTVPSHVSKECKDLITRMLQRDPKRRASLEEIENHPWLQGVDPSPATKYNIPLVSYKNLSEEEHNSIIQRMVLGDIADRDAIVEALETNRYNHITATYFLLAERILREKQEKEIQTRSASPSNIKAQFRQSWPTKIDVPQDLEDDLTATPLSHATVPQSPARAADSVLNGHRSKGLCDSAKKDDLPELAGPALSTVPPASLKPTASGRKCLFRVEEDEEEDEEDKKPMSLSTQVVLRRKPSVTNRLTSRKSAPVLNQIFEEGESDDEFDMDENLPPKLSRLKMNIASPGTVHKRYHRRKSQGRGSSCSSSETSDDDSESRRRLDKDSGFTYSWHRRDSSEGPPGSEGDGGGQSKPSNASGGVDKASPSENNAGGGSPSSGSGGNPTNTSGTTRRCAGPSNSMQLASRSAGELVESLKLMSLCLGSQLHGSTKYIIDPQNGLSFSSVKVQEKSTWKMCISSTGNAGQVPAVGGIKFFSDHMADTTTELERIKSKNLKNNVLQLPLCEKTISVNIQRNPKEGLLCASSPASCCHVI
# UniProt Q9UMY4: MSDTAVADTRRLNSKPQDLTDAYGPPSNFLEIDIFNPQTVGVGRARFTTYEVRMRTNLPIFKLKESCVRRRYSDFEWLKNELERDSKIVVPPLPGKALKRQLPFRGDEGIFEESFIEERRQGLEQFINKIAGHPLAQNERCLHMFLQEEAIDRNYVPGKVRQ
# UniProt P52788: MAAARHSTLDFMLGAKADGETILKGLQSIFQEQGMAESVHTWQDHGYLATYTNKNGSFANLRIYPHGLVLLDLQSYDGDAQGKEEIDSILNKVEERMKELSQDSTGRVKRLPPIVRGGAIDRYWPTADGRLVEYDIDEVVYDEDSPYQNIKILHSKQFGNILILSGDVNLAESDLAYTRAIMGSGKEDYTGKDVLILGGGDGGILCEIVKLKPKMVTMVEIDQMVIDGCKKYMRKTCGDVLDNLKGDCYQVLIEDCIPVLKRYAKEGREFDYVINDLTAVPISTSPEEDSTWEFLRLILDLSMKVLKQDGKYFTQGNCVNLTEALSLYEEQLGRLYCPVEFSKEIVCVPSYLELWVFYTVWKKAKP
# UniProt Q6GMV2: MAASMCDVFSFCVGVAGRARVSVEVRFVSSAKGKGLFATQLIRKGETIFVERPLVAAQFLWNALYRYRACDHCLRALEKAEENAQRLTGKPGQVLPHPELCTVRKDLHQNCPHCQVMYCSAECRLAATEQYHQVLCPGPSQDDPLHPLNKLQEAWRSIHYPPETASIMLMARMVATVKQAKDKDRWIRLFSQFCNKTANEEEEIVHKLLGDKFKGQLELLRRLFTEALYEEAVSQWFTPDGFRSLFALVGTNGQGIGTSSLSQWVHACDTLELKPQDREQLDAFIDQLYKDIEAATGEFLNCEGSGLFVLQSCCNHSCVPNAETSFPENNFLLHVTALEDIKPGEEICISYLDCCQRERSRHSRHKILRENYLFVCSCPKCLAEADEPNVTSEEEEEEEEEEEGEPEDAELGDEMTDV
# UniProt P18583: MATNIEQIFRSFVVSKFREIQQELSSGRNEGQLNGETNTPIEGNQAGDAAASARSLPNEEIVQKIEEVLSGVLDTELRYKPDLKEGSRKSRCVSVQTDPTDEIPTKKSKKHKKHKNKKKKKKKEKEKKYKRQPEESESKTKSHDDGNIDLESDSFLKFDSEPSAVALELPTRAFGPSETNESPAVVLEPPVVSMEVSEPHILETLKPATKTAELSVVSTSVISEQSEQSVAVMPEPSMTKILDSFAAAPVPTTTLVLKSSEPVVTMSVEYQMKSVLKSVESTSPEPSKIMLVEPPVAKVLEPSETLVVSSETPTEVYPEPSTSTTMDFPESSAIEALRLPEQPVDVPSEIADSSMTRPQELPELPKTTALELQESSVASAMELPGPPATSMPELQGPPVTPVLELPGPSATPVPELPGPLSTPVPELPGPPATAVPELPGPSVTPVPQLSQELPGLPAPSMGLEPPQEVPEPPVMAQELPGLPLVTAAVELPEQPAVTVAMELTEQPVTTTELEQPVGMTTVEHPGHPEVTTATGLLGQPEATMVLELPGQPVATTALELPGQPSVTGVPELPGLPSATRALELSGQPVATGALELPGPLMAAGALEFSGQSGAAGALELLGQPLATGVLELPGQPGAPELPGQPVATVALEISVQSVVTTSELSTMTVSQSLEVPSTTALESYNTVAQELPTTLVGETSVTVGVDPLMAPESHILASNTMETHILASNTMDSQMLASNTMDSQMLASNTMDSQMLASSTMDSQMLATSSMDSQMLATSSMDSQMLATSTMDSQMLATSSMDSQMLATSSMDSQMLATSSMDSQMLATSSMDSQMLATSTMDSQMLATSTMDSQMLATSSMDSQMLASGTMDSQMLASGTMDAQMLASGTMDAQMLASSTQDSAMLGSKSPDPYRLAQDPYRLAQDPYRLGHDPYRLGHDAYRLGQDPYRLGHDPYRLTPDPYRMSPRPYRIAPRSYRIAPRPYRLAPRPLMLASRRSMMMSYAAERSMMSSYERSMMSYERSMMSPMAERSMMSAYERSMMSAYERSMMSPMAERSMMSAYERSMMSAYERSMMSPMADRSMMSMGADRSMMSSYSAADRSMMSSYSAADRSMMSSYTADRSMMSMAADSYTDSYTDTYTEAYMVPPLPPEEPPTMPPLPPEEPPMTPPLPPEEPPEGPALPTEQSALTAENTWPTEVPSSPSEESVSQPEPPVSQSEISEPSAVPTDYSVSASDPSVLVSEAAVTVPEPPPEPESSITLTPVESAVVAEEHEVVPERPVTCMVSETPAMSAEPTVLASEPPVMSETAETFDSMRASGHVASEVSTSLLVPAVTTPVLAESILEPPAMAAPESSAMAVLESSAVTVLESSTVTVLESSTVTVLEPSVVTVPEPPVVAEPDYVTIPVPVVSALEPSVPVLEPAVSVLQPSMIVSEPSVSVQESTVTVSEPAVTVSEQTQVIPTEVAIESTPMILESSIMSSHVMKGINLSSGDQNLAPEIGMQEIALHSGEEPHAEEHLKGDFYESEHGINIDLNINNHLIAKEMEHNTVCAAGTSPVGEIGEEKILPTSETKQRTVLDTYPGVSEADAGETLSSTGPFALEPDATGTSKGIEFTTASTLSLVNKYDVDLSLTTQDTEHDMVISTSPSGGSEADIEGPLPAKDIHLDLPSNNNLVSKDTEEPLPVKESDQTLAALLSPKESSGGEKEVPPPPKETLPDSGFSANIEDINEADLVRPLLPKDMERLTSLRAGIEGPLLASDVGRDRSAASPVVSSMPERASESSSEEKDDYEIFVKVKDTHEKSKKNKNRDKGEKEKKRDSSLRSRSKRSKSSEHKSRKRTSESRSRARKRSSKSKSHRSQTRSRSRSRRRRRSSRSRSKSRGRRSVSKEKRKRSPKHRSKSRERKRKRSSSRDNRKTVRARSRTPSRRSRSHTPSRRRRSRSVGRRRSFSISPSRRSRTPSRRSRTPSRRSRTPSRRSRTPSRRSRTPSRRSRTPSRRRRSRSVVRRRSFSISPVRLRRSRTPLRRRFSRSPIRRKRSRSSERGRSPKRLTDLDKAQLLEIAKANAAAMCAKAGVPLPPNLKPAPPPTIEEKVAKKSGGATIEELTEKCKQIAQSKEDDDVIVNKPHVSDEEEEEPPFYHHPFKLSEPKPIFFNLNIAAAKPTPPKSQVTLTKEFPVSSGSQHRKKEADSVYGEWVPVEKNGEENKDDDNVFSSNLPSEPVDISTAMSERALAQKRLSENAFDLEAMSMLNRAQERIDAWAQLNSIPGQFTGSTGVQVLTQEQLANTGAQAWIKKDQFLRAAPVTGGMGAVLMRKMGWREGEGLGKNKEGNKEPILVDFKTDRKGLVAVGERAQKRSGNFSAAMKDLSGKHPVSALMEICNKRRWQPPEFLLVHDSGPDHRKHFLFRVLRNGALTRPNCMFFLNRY
# The other results are listed elsewhere or left out.
# Key:
# Experiment in all cases: log2 fold change, soluble protein after heating vs DMSO (PISA); higher = thermal stabilisation; K562 lysate, 10 uM; active = over 0.2 and 3.5 SD of the protein, either way, in both replicates (recomputed)
# lapatinib = compound: CS(=O)(=O)CCNCc1ccc(-c2ccc3ncnc(Nc4ccc(OCc5cccc(F)c5)c(Cl)c4)c3c2)o1 [lapatinib]
# In short: (§1)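 Quantification was by TMTpro 16plex LC-MS/MS with equalised channel sums, applied to the supernatant after 21,000xg for 90 min. Samples were crude K562 extract at 1 mg/mL protein in PBS pH 7.4 with 1 mM MgCl2, treated with 10 μM compound for 30 min, heated for 3 min across 48°C-58°C, pooled and brought to 0.5% NP-40 at 4°C. Values are log-two fold changes in thermal stability relative to solvent controls, from duplicates.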
# pictilisib = compound: CS(=O)(=O)N1CCN(Cc2cc3nc(-c4cccc5[nH]ncc45)nc(N4CCOCC4)c3s2)CC1 [pictilisib]
# In short: as §1
# crizotinib = compound: C[C@@H](Oc1cc(-c2cnn(C3CCNCC3)c2)cnc1N)c1c(Cl)ccc(F)c1Cl [crizotinib]
# In short: as §1
# [1] = compound: C[C@H](C1=CC=C(C=C1)C(=O)NC2=C3C=CNC3=NC=C2)N
# In short: as §1
# duvelisib = compound: C[C@H](Nc1ncnc2nc[nH]c12)c1cc2cccc(Cl)c2c(=O)n1-c1ccccc1 [duvelisib]
# In short: as §1
# gandotinib = compound: Cc1cc(Nc2cc(CN3CCOCC3)c3nc(C)c(Cc4ccc(Cl)cc4F)n3n2)n[nH]1 [gandotinib]
# In short: as §1
# tozasertib = compound: Cc1cc(Nc2cc(N3CCN(C)CC3)nc(Sc3ccc(NC(=O)C4CC4)cc3)n2)n[nH]1 [tozasertib]
# In short: as §1
# doramapimod = compound: Cc1ccc(-n2nc(C(C)(C)C)cc2NC(=O)Nc2ccc(OCCN3CCOCC3)c3ccccc23)cc1 [doramapimod]
# In short: as §1
# bafetinib = compound: Cc1ccc(NC(=O)c2ccc(CN3CC[C@H](N(C)C)C3)c(C(F)(F)F)c2)cc1Nc1nccc(-c2cncnc2)n1 [bafetinib]
# In short: as §1
# [2] = compound: Cc1cccc(CC(=O)N2CCc3c2ccc(-c2cn(C)c4ncnc(N)c24)c3F)n1
# In short: as §1
# nilotinib = compound: Cc1cn(-c2cc(NC(=O)c3ccc(C)c(Nc4nccc(-c5cccnc5)n4)c3)cc(C(F)(F)F)c2)cn1 [nilotinib]
# In short: as §1
# [3] = compound: Cc1nc(Nc2n[nH]c3c2CN(C(=O)N[C@H](CN(C)C)c2ccccc2)C3(C)C)c2sccc2n1
# In short: as §1
# dasatinib = compound: Cc1nc(Nc2ncc(C(=O)Nc3c(C)cccc3Cl)s2)cc(N2CCN(CCO)CC2)n1 [dasatinib]
# In short: as §1
# [4] = compound: Cc1ncc(-c2ccnc(Nc3ccc(S(C)(=O)=O)cc3)n2)n1C(C)C
# In short: as §1
# [5] = compound: Cn1cc(-c2ccc3c(c2)CCN3C(=O)Cc2cccc(C(F)(F)F)c2)c2c(N)ncnc21
# In short: as §1
# quisinostat = compound: Cn1cc(CNCC2CCN(c3ncc(C(=O)NO)cn3)CC2)c2ccccc21 [quisinostat]
# In short: as §1
# tipifarnib = compound: Cn1cncc1[C@@](N)(c1ccc(Cl)cc1)c1ccc2c(c1)c(-c1cccc(Cl)c1)cc(=O)n2C [tipifarnib]
# In short: as §1
# [6] = compound: NC(=O)Nc1cc(-c2cccc(F)c2)sc1C(=O)N[C@H]1CCCNC1
# In short: as §1
# [7] = compound: NC(=O)c1cnc(N[C@@H]2CCCC[C@@H]2N)nc1Nc1cccc(-n2nccn2)c1
# In short: as §1
# [8] = compound: NC1(c2ccc(-c3nc4ccn5c(=O)[nH]nc5c4cc3-c3ccccc3)cc2)CCC1
# In short: as §1
Target,log2 fold change (lapatinib),log2 fold change (pictilisib),log2 fold change (crizotinib),log2 fold change [1],log2 fold change (duvelisib),log2 fold change (gandotinib),log2 fold change (tozasertib),log2 fold change (doramapimod),log2 fold change (bafetinib),log2 fold change [2],log2 fold change (nilotinib),log2 fold change [3],log2 fold change (dasatinib),log2 fold change [4],log2 fold change [5],log2 fold change (quisinostat),log2 fold change (tipifarnib),log2 fold change [6],log2 fold change [7],log2 fold change [8]
SMIM8 (UniProt Q96KF7),inactive: -0.053,inactive: -0.079,inactive: -0.041,inactive: -0.146,inactive: 0.019,inactive: 0.128,inactive: -0.038,inactive: -0.059,inactive: -0.035,inactive: 0.018,inactive: 0.059,inactive: -0.018,inactive: 0.032,inactive: 0.055,inactive: -0.023,inactive: 0.084,inactive: -0.033,inactive: -0.02,inactive: -0.045,inactive: -0.013
SMU1 (UniProt Q2TAY7),inactive: 0.026,inactive: 0.002,inactive: -0.015,inactive: -0.012,inactive: 0.003,inactive: 0.012,inactive: -0.01,inactive: 0.042,inactive: -0.021,inactive: -0.017,inactive: 0.003,inactive: -0.023,inactive: -0.001,inactive: -0.015,inactive: 0.009,inactive: -0.014,inactive: -0.032,inactive: -0.003,inactive: -0.005,inactive: 0.031
SP1 (UniProt P08047),inactive: 0.077,inactive: 0.009,inactive: 0.022,inactive: -0.024,inactive: -0.063,inactive: 0.056,inactive: -0.049,inactive: 0.095,inactive: -0.027,inactive: 0.031,inactive: -0.035,inactive: -0.02,inactive: -0.028,inactive: 0.117,inactive: -0.019,inactive: 0.055,inactive: -0.031,inactive: -0.02,inactive: 0.008,inactive: 0.005
SP3 (UniProt Q02447),inactive: -0.008,inactive: -0.001,inactive: -0.002,inactive: 0.12,inactive: 0.037,inactive: 0.038,inactive: 0.023,inactive: 0.026,inactive: -0.061,inactive: -0.06,inactive: -0.005,inactive: 0.19,inactive: -0.188,inactive: 0.227,inactive: -0.104,inactive: 0.081,inactive: -0.072,inactive: -0.069,inactive: 0.031,inactive: -0.03
SNX16 (UniProt P57768),inactive: 0.071,inactive: -0.073,inactive: -0.067,inactive: 0.137,inactive: -0.008,inactive: 0.094,inactive: 0.175,inactive: 0.037,inactive: -0.07,inactive: 0.102,inactive: -0.012,inactive: -0.063,inactive: -0.046,inactive: 0.068,inactive: 0.023,inactive: 0.113,inactive: 0.191,inactive: 0.09,inactive: -0.031,inactive: -0.015
SMC3 (UniProt Q9UQE7),inactive: 0.007,inactive: 0.006,inactive: 0.011,inactive: 0.037,inactive: -0.01,inactive: -0.013,inactive: 0.001,inactive: -0.007,inactive: -0.021,inactive: -0.012,inactive: 0,inactive: -0.01,inactive: 0.024,inactive: 0.013,inactive: 0.024,inactive: 0.023,inactive: 0.002,inactive: 0,inactive: -0.003,inactive: 0.016
SORD (UniProt Q00796),inactive: -0.022,inactive: -0.024,inactive: 0.011,inactive: -0.067,inactive: 0.019,inactive: 0.062,inactive: 0.011,inactive: 0.011,inactive: 0.031,inactive: 0.018,inactive: 0.025,inactive: -0.007,inactive: -0.019,inactive: 0.01,inactive: 0.004,inactive: -0.031,inactive: -0.005,inactive: -0.002,inactive: -0.014,inactive: 0.033
SMG7 (UniProt Q92540),inactive: 0.101,inactive: 0.1,inactive: 0.043,inactive: -0.035,inactive: 0.026,inactive: -0.018,inactive: 0.026,active: -0.257,inactive: -0.008,inactive: 0.022,inactive: 0.001,inactive: -0.034,inactive: 0.003,inactive: -0.058,inactive: 0.03,inactive: 0.062,inactive: -0.072,inactive: 0.054,inactive: -0.067,inactive: 0.04
SMC1A (UniProt Q14683),inactive: -0.003,inactive: -0.001,inactive: 0.008,inactive: 0.046,inactive: 0.012,inactive: -0.006,inactive: -0.001,inactive: 0.01,inactive: -0.036,inactive: -0.008,inactive: -0.023,inactive: -0.01,inactive: 0.004,inactive: -0.01,inactive: 0.023,inactive: 0,inactive: 0.012,inactive: -0.003,inactive: 0.004,inactive: -0.002
SNRK (UniProt Q9NRH2),inactive: -0.04,inactive: 0.046,inactive: 0,inactive: -0.004,inactive: -0.099,inactive: -0.047,inactive: 0.031,inactive: 0.011,inactive: -0.005,inactive: 0.108,inactive: -0.137,inactive: 0.151,inactive: -0.279,inactive: -0.116,inactive: 0.088,inactive: -0.147,inactive: -0.094,inactive: 0.194,inactive: -0.054,inactive: 0.152
SNX12 isoform 1 (UniProt Q9UMY4),inactive: 0.03,inactive: 0.002,inactive: 0.029,inactive: 0.027,inactive: 0.024,inactive: -0.038,inactive: 0.034,inactive: 0.023,inactive: 0.006,inactive: -0.044,inactive: -0.003,inactive: 0.006,inactive: 0.021,inactive: -0.017,inactive: -0.026,inactive: 0.078,inactive: 0.034,inactive: -0.04,inactive: 0.003,inactive: 0.028
SMARCD1 (UniProt Q96GM5),inactive: -0.025,inactive: -0.025,inactive: 0.111,inactive: -0.019,inactive: 0.074,inactive: -0.036,inactive: 0.038,inactive: -0.095,inactive: -0.058,inactive: -0.016,inactive: 0.025,inactive: -0.012,inactive: -0.029,inactive: -0.026,inactive: -0.027,inactive: 0.043,inactive: 0.025,inactive: 0.017,inactive: 0.03,inactive: -0.032
SMS (UniProt P52788),inactive: -0.019,inactive: 0.008,inactive: -0.007,inactive: 0.063,inactive: 0.008,inactive: -0.05,inactive: -0.005,inactive: -0.005,inactive: 0.025,inactive: -0.052,inactive: 0.016,inactive: 0,inactive: -0.025,inactive: -0.003,inactive: 0.003,inactive: -0.003,inactive: -0.008,inactive: -0.007,inactive: 0.001,inactive: 0
SMYD5 (UniProt Q6GMV2),inactive: -0.036,inactive: -0.003,inactive: -0.032,inactive: -0.095,inactive: -0.025,inactive: 0.032,inactive: 0.008,inactive: 0.025,inactive: -0.062,inactive: 0.05,inactive: 0.097,inactive: -0.017,inactive: -0.015,inactive: 0.028,inactive: -0.008,inactive: -0.046,inactive: 0.019,inactive: 0.014,inactive: 0.012,inactive: -0.032
SMG9 (UniProt Q9H0W8),inactive: 0,inactive: -0.04,inactive: -0.058,inactive: -0.062,inactive: 0.012,inactive: -0.004,inactive: 0.027,inactive: -0.069,inactive: -0.067,inactive: 0.074,inactive: -0.024,inactive: 0.033,inactive: -0.081,inactive: -0.015,inactive: 0.057,inactive: -0.122,inactive: -0.011,inactive: 0.043,inactive: 0.021,inactive: -0.042
SON isoform 9 (UniProt P18583),inactive: -0.044,inactive: 0.012,inactive: -0.041,inactive: -0.127,inactive: 0.026,inactive: -0.016,inactive: -0.028,inactive: 0.017,inactive: -0.147,inactive: 0.097,inactive: 0.022,inactive: -0.053,inactive: -0.053,inactive: 0.038,inactive: 0.028,inactive: -0.001,inactive: -0.02,inactive: -0.015,inactive: 0,inactive: 0.021

# A section from the list above, as a working copy:
Target,log2 fold change (lapatinib),log2 fold change (pictilisib),log2 fold change (crizotinib),log2 fold change [1],log2 fold change (duvelisib),log2 fold change (gandotinib),log2 fold change (tozasertib),log2 fold change (doramapimod),log2 fold change (bafetinib),log2 fold change [2],log2 fold change (nilotinib),log2 fold change [3],log2 fold change (dasatinib),log2 fold change [4],log2 fold change [5],log2 fold change (quisinostat),log2 fold change (tipifarnib),log2 fold change [6],log2 fold change [7],log2 fold change [8]
SMIM8 (UniProt Q96KF7),inactive: -0.053,inactive: -0.079,inactive: -0.041,inactive: -0.146,inactive: 0.019,inactive: 0.128,inactive: -0.038,inactive: -0.059,inactive: -0.035,inactive: 0.018,inactive: 0.059,inactive: -0.018,inactive: 0.032,inactive: 0.055,inactive: -0.023,inactive: 0.084,inactive: -0.033,inactive: -0.02,inactive: -0.045,inactive: -0.013
SMU1 (UniProt Q2TAY7),inactive: 0.026,inactive: 0.002,inactive: -0.015,inactive: -0.012,inactive: 0.003,inactive: 0.012,inactive: -0.01,inactive: 0.042,inactive: -0.021,inactive: -0.017,inactive: 0.003,inactive: -0.023,inactive: -0.001,inactive: -0.015,inactive: 0.009,inactive: -0.014,inactive: -0.032,inactive: -0.003,inactive: -0.005,inactive: 0.031
